Reference: publication PMC8213057, “Targeting ALK2: An Open Science Approach to Developing Therapeutics for the Treatment of Diffuse Intrinsic Pontine Glioma” (Journal of Medicinal Chemistry, 2020)

By UniProt entry, the sequences of proteins in these tests, tags left out. Where a name states a change or a piece, a line headed by the entry shows the natural chain unless it says otherwise. Residues count along the entry.
UniProt Q96GD4, whole entry: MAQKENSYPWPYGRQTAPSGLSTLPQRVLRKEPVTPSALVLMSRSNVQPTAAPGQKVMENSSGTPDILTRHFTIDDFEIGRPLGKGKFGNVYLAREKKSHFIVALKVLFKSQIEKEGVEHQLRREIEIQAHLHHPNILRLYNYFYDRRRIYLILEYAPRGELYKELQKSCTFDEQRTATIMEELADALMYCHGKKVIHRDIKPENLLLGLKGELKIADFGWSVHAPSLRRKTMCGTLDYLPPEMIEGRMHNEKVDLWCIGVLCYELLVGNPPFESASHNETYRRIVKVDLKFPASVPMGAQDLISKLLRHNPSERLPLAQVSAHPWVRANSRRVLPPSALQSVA
UniProt Q00537: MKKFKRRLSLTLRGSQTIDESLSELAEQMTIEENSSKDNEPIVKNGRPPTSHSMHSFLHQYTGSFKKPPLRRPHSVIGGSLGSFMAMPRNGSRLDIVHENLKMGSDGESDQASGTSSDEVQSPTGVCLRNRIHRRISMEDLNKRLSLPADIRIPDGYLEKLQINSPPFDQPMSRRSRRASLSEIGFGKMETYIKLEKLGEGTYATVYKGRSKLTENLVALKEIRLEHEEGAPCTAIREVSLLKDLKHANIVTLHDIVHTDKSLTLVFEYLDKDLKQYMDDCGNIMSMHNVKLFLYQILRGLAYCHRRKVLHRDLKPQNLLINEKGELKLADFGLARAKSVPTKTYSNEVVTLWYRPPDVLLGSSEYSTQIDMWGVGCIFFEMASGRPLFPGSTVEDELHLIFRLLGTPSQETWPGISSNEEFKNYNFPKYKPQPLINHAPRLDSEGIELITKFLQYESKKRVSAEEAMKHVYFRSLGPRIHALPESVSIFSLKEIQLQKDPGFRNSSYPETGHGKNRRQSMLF
UniProt P54764, 20-986: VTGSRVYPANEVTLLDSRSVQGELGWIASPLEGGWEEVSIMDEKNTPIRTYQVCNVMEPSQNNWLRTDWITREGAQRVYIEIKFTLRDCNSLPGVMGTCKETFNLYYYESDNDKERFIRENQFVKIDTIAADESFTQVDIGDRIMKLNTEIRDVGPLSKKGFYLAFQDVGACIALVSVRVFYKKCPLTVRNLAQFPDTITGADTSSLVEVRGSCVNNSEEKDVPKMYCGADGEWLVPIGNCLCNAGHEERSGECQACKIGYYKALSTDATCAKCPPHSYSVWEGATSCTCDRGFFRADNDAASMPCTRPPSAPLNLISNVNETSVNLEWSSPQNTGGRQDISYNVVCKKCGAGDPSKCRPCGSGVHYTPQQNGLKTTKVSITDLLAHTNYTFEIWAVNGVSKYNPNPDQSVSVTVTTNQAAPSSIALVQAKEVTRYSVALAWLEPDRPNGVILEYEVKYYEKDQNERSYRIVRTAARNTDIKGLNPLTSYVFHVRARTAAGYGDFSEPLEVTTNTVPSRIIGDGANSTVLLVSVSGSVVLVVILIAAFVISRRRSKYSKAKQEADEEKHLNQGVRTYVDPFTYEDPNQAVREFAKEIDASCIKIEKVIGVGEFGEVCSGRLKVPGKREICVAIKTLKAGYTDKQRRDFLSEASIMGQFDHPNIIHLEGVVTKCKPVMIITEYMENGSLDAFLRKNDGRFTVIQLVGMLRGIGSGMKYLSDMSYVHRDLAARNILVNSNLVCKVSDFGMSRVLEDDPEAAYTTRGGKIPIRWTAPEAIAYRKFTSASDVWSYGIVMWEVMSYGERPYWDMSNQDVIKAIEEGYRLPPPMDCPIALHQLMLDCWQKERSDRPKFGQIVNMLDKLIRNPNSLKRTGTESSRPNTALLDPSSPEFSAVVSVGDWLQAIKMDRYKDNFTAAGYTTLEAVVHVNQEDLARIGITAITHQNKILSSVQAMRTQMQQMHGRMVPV
UniProt Q9NYY3: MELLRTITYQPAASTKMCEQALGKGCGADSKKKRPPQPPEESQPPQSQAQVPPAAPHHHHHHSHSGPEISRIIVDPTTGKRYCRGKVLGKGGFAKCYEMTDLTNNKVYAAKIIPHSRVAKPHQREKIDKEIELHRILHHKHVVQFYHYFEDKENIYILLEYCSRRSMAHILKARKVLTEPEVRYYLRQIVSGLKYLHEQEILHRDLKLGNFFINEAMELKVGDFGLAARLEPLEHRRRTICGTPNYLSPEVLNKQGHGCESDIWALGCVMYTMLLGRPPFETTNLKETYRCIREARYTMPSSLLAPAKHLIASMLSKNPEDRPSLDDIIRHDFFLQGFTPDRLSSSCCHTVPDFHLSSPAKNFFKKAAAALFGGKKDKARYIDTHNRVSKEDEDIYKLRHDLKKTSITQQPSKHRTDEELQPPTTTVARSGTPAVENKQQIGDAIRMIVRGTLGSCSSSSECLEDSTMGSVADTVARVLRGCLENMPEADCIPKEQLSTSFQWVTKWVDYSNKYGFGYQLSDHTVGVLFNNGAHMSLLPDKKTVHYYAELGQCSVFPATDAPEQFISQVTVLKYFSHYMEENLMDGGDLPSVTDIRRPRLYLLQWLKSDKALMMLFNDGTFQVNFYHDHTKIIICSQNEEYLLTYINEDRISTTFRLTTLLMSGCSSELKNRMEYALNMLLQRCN
UniProt O00506, whole entry: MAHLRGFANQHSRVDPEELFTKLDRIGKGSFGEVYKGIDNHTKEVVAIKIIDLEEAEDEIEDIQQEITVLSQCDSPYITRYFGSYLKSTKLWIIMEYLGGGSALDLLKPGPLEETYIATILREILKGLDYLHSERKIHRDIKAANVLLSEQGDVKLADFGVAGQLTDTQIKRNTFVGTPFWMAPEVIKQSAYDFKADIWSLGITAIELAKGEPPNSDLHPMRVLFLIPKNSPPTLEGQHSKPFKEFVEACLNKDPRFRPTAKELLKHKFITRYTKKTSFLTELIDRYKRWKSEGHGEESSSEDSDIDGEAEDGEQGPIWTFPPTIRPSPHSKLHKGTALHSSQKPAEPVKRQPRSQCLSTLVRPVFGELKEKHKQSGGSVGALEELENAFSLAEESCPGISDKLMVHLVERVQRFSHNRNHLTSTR
UniProt Q8TDC3: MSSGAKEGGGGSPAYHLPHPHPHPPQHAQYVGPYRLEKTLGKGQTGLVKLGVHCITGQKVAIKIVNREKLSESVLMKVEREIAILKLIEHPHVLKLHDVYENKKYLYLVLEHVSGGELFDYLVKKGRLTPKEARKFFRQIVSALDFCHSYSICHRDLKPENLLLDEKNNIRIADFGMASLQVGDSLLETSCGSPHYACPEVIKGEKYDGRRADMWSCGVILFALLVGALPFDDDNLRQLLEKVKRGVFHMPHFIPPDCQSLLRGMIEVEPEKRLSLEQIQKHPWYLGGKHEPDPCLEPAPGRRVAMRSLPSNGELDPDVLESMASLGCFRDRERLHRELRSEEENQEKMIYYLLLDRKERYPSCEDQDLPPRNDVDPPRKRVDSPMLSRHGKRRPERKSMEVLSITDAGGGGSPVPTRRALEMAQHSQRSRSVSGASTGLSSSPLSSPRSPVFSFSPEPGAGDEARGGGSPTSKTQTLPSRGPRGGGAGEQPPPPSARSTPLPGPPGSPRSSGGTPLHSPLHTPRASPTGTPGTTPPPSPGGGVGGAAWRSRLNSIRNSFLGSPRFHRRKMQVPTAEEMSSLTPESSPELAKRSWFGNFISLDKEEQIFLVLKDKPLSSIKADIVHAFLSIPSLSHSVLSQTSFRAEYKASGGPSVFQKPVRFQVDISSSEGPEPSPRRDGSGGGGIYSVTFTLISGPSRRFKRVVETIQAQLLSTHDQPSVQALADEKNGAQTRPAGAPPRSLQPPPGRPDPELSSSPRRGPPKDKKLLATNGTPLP
UniProt P68400, whole entry: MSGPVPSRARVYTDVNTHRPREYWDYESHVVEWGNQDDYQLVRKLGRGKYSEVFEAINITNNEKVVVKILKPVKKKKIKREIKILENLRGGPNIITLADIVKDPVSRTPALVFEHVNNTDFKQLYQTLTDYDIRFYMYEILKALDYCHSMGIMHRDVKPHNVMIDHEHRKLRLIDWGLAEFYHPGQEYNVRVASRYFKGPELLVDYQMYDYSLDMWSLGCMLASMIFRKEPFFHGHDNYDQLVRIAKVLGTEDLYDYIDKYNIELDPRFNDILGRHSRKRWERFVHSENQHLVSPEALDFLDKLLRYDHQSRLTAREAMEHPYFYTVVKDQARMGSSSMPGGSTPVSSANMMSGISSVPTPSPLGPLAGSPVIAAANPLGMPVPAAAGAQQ
UniProt P22607, 23-806: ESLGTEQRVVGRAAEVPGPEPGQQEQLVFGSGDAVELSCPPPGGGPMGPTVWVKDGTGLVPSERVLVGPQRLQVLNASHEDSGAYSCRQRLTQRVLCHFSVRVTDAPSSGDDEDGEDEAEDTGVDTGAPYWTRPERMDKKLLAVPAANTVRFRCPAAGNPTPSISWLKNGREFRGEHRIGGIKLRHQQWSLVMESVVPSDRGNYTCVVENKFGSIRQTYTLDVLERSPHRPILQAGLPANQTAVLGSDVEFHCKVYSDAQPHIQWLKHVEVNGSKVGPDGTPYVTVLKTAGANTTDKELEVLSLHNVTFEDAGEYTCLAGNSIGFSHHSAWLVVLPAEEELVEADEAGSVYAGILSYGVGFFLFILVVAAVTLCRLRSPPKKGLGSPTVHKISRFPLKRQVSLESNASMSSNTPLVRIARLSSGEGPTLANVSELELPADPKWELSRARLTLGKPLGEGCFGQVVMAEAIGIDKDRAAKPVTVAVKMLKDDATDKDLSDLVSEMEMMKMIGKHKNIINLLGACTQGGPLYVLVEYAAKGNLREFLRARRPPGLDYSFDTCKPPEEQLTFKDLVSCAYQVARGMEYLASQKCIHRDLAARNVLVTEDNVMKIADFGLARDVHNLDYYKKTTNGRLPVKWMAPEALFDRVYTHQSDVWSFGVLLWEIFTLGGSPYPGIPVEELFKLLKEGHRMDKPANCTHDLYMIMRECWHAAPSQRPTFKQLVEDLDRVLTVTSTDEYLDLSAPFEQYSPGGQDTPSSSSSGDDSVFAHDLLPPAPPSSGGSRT
UniProt Q16644, whole entry: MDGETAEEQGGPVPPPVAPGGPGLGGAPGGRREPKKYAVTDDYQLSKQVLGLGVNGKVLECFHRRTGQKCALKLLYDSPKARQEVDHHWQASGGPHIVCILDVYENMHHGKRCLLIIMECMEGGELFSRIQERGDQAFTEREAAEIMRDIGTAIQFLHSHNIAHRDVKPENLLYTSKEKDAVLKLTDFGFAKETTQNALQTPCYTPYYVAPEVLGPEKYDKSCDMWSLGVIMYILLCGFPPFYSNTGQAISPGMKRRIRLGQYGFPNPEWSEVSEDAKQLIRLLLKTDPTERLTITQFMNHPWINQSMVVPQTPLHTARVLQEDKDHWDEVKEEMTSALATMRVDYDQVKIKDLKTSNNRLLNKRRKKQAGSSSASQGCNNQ
UniProt O15530: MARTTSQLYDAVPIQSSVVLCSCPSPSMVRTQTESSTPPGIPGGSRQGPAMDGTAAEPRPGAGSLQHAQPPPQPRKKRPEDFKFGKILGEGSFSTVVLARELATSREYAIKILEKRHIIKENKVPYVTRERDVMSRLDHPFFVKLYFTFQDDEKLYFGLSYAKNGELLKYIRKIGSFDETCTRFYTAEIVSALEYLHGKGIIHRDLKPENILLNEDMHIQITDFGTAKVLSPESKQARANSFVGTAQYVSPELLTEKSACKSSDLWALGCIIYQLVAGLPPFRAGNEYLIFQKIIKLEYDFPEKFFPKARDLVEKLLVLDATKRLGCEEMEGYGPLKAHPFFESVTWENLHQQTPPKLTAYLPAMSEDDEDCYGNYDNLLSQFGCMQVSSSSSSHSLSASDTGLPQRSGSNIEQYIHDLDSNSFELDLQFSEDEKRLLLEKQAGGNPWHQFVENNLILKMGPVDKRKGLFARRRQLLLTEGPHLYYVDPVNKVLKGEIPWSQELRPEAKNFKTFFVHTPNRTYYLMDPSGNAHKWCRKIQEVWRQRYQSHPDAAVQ
UniProt Q6PHR2, whole entry, species assumed: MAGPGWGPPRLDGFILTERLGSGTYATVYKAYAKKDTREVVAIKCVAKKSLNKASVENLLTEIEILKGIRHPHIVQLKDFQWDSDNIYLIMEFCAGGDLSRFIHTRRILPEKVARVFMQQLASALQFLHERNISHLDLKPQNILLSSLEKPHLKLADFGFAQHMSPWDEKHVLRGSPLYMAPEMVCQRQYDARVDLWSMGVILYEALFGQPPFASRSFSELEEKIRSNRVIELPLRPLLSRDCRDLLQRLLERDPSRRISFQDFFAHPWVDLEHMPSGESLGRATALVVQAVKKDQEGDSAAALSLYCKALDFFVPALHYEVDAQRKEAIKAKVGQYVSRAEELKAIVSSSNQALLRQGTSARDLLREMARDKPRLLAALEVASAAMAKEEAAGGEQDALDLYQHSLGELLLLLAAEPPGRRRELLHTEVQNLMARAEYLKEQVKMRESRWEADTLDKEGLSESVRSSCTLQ

Tests used:
AURORA B [1] = biological target: T1, AURORA B (Homo sapiens, UniProt Q96GD4); details: 1 μM; Run 1, Run 2
c-MER = c-MER (Homo sapiens, UniProt Q12866); details: 1 μM; Run 1, Run 2
CAMK1d = CAMK1d (Homo sapiens, UniProt Q8IU85); details: 1 μM; Run 1, Run 2
CAMK2a = CAMK2a (Homo sapiens, UniProt Q9UQM7); details: 1 μM; Run 1, Run 2
CDK1/cyclin A = CDK1/cyclin A (Homo sapiens, UniProt P06493); details: 1 μM; Run 1, Run 2
CDK17/cyclin Y (PCTK2) = CDK17/cyclin Y (PCTK2) (Homo sapiens, UniProt Q00537); details: 1 μM; Run 1, Run 2
CK1epsilon = CK1epsilon (Homo sapiens, UniProt P49674); details: 1 μM; Run 1, Run 2
EPHA4 = EPHA4 (Homo sapiens, UniProt P54764); details: 1 μM; Run 1, Run 2
ERBB2/HER2 = ERBB2/HER2 (Homo sapiens, UniProt P04626); details: 1 μM; Run 1, Run 2
ERK5/MAPK7 [2] = biological target: T2, ERK5/MAPK7 (Homo sapiens, UniProt Q13164); details: 1 μM; Run 1, Run 2
GRK4 = GRK4 (Homo sapiens, UniProt P32298); details: 1 μM; Run 1, Run 2
IRR/INSRR = IRR/INSRR (Homo sapiens, UniProt P14616); details: 1 μM; Run 1, Run 2
PAK5 = PAK5 (Homo sapiens, UniProt Q9P286); details: 1 μM; Run 1, Run 2
PDGFRb = PDGFRb (Homo sapiens, UniProt P09619); details: 1 μM; Run 1, Run 2
PKAcg = PKAcg (Homo sapiens, UniProt P22612); details: 1 μM; Run 1, Run 2
PKCiota [3] = biological target: T3, PKCiota (Homo sapiens, UniProt P41743); details: 1 μM; Run 1, Run 2
PLK2 = PLK2 (Homo sapiens, UniProt Q9NYY3); details: 1 μM; Run 1, Run 2
SBK1 = SBK1 (Homo sapiens, UniProt Q52WX2); details: 1 μM; Run 1, Run 2
SGK2 = SGK2 (Homo sapiens, UniProt Q9HBY8); details: 1 μM; Run 1, Run 2
STK25/YSK1 = STK25/YSK1 (Homo sapiens, UniProt O00506); details: 1 μM; Run 1, Run 2
ABL1 = ABL1 (Homo sapiens, UniProt P00519); experiment: biochemical; details: read-out: % enzyme activity, 1 μM; Run 1, Run 2
AURORA B [4] = biological target: T1, AURORA B; experiment: biochemical; details: read-out: % enzyme activity, 1 μM; Run 1, Run 2
BRSK1 = BRSK1 (Homo sapiens, UniProt Q8TDC3); experiment: biochemical; details: read-out: % enzyme activity, 1 μM; Run 1, Run 2
CDK2/Cyclin A1 = CDK2/Cyclin A1 (Homo sapiens, UniProt P24941); experiment: biochemical; details: read-out: % enzyme activity, 1 μM; Run 1, Run 2
CK1d = CK1d (Homo sapiens, UniProt P48730); experiment: biochemical; details: read-out: % enzyme activity, 1 μM; Run 1, Run 2
CK2a = CK2a (Homo sapiens, UniProt P68400); experiment: biochemical; details: read-out: % enzyme activity, 1 μM; Run 1, Run 2
EPHA3 = EPHA3 (Homo sapiens, UniProt P29320); experiment: biochemical; details: read-out: % enzyme activity, 1 μM; Run 1, Run 2
EPHA6 = EPHA6 (Homo sapiens, UniProt Q9UF33); experiment: biochemical; details: read-out: % enzyme activity, 1 μM; Run 1, Run 2
EPHB1 = EPHB1 (Homo sapiens, UniProt P54762); experiment: biochemical; details: read-out: % enzyme activity, 1 μM; Run 1, Run 2
EPHB4 = EPHB4 (Homo sapiens, UniProt P54760); experiment: biochemical; details: read-out: % enzyme activity, 1 μM; Run 1, Run 2
ERK5/MAPK7 [5] = biological target: T2, ERK5/MAPK7; experiment: biochemical; details: read-out: % enzyme activity, 1 μM; Run 1, Run 2
FGFR3 = FGFR3 (Homo sapiens, UniProt P22607); experiment: biochemical; details: read-out: % enzyme activity, 1 μM; Run 1, Run 2
FLT1/VEGFR1 = FLT1/VEGFR1 (Homo sapiens, UniProt P17948); experiment: biochemical; details: read-out: % enzyme activity, 1 μM; Run 1, Run 2
HIPK2 = HIPK2 (Homo sapiens, UniProt Q9H2X6); experiment: biochemical; details: read-out: % enzyme activity, 1 μM; Run 1, Run 2
IR = IR (Homo sapiens, UniProt P06213); experiment: biochemical; details: read-out: % enzyme activity, 1 μM; Run 1, Run 2
MAPKAPK3 = MAPKAPK3 (Homo sapiens, UniProt Q16644); experiment: biochemical; details: read-out: % enzyme activity, 1 μM; Run 1, Run 2
P38g = P38g (Homo sapiens, UniProt P53778); experiment: biochemical; details: read-out: % enzyme activity, 1 μM; Run 1, Run 2
PAK3 = PAK3 (Homo sapiens, UniProt O75914); experiment: biochemical; details: read-out: % enzyme activity, 1 μM; Run 1, Run 2
PDGFRa = PDGFRa (Homo sapiens, UniProt P16234); experiment: biochemical; details: read-out: % enzyme activity, 1 μM; Run 1, Run 2
PDK1/PDPK1 = PDK1/PDPK1 (Homo sapiens, UniProt O15530); experiment: biochemical; details: read-out: % enzyme activity, 1 μM; Run 1, Run 2
PKCiota [6] = biological target: T3, PKCiota; experiment: biochemical; details: read-out: % enzyme activity, 1 μM; Run 1, Run 2
PKN3/PRK3 = PKN3/PRK3 (Homo sapiens, UniProt Q6P5Z2); experiment: biochemical; details: read-out: % enzyme activity, 1 μM; Run 1, Run 2
ULK3 = ULK3 (Homo sapiens, UniProt Q6PHR2); experiment: biochemical; details: read-out: % enzyme activity, 1 μM; Run 1, Run 2

`COc1cc(-c2cncc(-c3ccc(N4CCN(C(C)C)CC4)cc3)c2C)cc(F)c1C(N)=O` [Compound 26b, 2-Fluoro-4-(5-(4-(4-isopropylpiperazin-1-yl)phenyl)-4-methylpyridin-3-yl)-6-methoxybenzamide] was tested, and the “% enzyme activity” value (AURORA B [1]) was 110.21%, the “% enzyme activity” value (c-MER) was 95.70% and the “% enzyme activity” value (CAMK1d) was 98.72%. The “% enzyme activity” value (CAMK2a) was 89.17%, the “% enzyme activity” value (CDK1/cyclin A) was 83.71% and the “% enzyme activity” value (CDK17/cyclin Y (PCTK2)) was 93.99%. For the same molecule, the “% enzyme activity” value (CK1epsilon) was 91.70%, the “% enzyme activity” value (EPHA4) was 99.89% and the “% enzyme activity” value (ERBB2/HER2) was 85.10%. For the same molecule, the “% enzyme activity” value (ERK5/MAPK7 [2]) was 98.66%, the “% enzyme activity” value (GRK4) was 90.10% and the “% enzyme activity” value (IRR/INSRR) was 121.01%. The “% enzyme activity” value (PAK5) was 96.36%, the “% enzyme activity” value (PDGFRb) was 88.87% and the “% enzyme activity” value (PKAcg) was 88.31%. The “% enzyme activity” value (PKCiota [3]) was 95.18%, the “% enzyme activity” value (PLK2) was 92.87% and the “% enzyme activity” value (SBK1) was 96.20%. The “% enzyme activity” value (SGK2) was 94.93%, the “% enzyme activity” value (STK25/YSK1) was 91.63% and the remaining activity at 1 µM (ABL1) was 84.5%. For the same molecule, the remaining activity at 1 µM (AURORA B [4]) was 112%, the remaining activity at 1 µM (BRSK1) was 87.9% and the remaining activity at 1 µM (CDK2/Cyclin A1) was 112%. It also gave a remaining activity at 1 µM (CK1d) of 100%, a remaining activity at 1 µM (CK2a) of 88.7% and a remaining activity at 1 µM (EPHA3) of 101%. For the same molecule, the remaining activity at 1 µM (EPHA6) was 103%, the remaining activity at 1 µM (EPHB1) was 91.5% and the remaining activity at 1 µM (EPHB4) was 91%. For the same molecule, the remaining activity at 1 µM (ERK5/MAPK7 [5]) was 99.6%, the remaining activity at 1 µM (FGFR3) was 105% and the remaining activity at 1 µM (FLT1/VEGFR1) was 98.2%. The remaining activity at 1 µM (HIPK2) was 102%, the remaining activity at 1 µM (IR) was 101% and the remaining activity at 1 µM (MAPKAPK3) was 99.5%. It also gave a remaining activity at 1 µM (P38g) of 94.4%, a remaining activity at 1 µM (PAK3) of 90.2% and a remaining activity at 1 µM (PDGFRa) of 80%. The remaining activity at 1 µM (PDK1/PDPK1) was 96.3%, the remaining activity at 1 µM (PKCiota [6]) was 100% and the remaining activity at 1 µM (PKN3/PRK3) was 101%. For the same molecule, the remaining activity at 1 µM (ULK3) was 94.5%.
